Data as given in PubChem BioAssay AID720505 (Drosophila RNAi Screening Center, 2013).
Test: 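Knock-downs that reduce calcium influx once internal stores are emptied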 (primary screen). Cell system: Drosophila S2R+ cells. Reagent: long dsRNA against Drosophila genes. Challenge: thapsigargin (2 µM) in calcium-free buffer to empty internal stores, then 2 mM calcium added back. Measurement: 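Fluo-4 signal in 384-well plates read on a FLIPR after thapsigargin (2 µM, calcium-free) store depletion and 2 mM calcium add-back; unnormalised mean endpoint per well; screen run twice, selected wells retested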. Reading the numbers: calcium signal and retest calcium signal: higher = more calcium entry after store depletion. Active means: 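Knock-downs counted as hits when calcium entry dropped relative to STIM1 positive and Rho1 negative controls present on each plate; roughly 1500 genes called, with reductions of differing size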. Calls: active = called as lowering calcium entry; inactive = not called.
The deposit covers about 20,000 reagents; this is a random part of those that have a named target and a result. Over the whole deposit, about 2,100 (10%) are marked active. 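Raw plate signals without normalisation; calls rest on control-based scores that were not deposited; replicate 2 separates called from uncalled poorly.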 A number with no mark means an inactive call. A plus sign joins genes that one reagent is predicted to hit. Reagent sequences are not shown. The record does not give: the amount of reagent, the time to read-out.

| Target gene | DRSC id | calcium signal, replicate 1 | calcium signal, replicate 2 | retest calcium signal, replicate 1 | retest calcium signal, replicate 2 |
| --- | --- | --- | --- | --- | --- |
| CG3349 | DRSC10359 | 104 | 129 | – | – |
| lncRNA:iab4 | DRSC22331 | 120 | 224 | – | – |
| CG13474 | DRSC10018 | 83.4 | 108 | – | – |
| Sgs7 | DRSC11281 | 103 | 101 | – | – |
| CG3634 | DRSC11747 | 103 | 151 | – | – |
| drongo | DRSC00814 | 167 | 222 | – | – |
| CG18179 | DRSC10303 | 84.1 | 145 | – | – |
| ps | DRSC15149 | 91.3 | 81.8 | – | – |
| ps | DRSC15151 | 97.4 | 82.2 | – | – |
| ps | DRSC15152 | 125 | 83.9 | – | – |
| ps | DRSC16388 | 111 | 77.9 | – | – |
| ps | DRSC22989 | 44 (active) | 78.7 | – | – |
| CG32459 | DRSC11852 | 90.9 | 163 | – | – |
| CG4301 | DRSC19886 | 71.6 (active) | 79.6 | – | – |
| aft | DRSC07576 | 150 | 124 | – | – |
| RpL35 | DRSC18347 | 131 | 96.9 | – | – |
| CG7730 | DRSC10909 | 65.2 (active) | 88.3 | – | – |
| CG13723 | DRSC10052 | 88.7 | 154 | – | – |
| Ythdc1 | DRSC08141 | 108 | 88 | – | – |
| Mnat9 | DRSC14325 | 85.2 | 130 | – | – |
| GlnRS | DRSC14140 | 97 | 90.1 | – | – |
| Tbc1d15-17 | DRSC00313 | 102 | 190 | – | – |
| CG6083 | DRSC10580 | 87.9 | 75 | – | – |
| CG31832 | DRSC22067 | 100 | 247 | – | – |
| CG13653 | DRSC14653 | 284 | 182 | – | – |
| CG31870 | DRSC21681 | 187 | 101 | – | – |
| SIDL | DRSC16077 | 114 | 139 | – | – |
| CG12688 (retired record) | DRSC17877 | 223 | 128 | 7346 | 134 |
| CG12688 (retired record) | DRSC17878 | 251 | 162 | 6985 | 145 |
| CG42726 + CG42727 | DRSC14485 | 109 | 118 | – | – |
| CG6443 | DRSC02958 | 54.3 (active) | 81.3 | – | – |
| CG6836 | DRSC10722 | 59 (active) | 77.5 | – | – |
| hui | DRSC05977 | 155 | 97.1 | – | – |
| Ir75b | DRSC10189 | 169 | 197 | – | – |
| CG12128 | DRSC06104 | 148 | 141 | – | – |
| CG2104 | DRSC12304 | 135 | 142 | – | – |
| CG10465 | DRSC04848 | 95.9 | 163 | – | – |
| levy | DRSC04289 | 147 | 192 | – | – |
| NtR | DRSC04628 | 188 | 81 | – | – |
| BTBD9 | DRSC18148 | 96.1 | 94.3 | – | – |
| BTBD9 | DRSC22371 | 84.8 | 162 | – | – |
| CR32733 + CG32797 | DRSC17705 | 8723 | 131 | – | – |
| CG12895 | DRSC06210 | 85 | 158 | – | – |
| Eig71Ej | DRSC11157 | 68.8 | 182 | – | – |
| eco | DRSC11006 | 111 | 81.6 | – | – |
| Alp9 | DRSC10486 | 66.4 (active) | 108 | – | – |
| CG7768 | DRSC10914 | 76.9 | 121 | – | – |
| beat-Ic | DRSC01524 | 152 | 77 | – | – |
| beat-Ic | DRSC03491 | 141 | 116 | – | – |
| CG34281 | DRSC14807 | 101 | 145 | – | – |
| CG18649 | DRSC10334 | 86.1 | 134 | – | – |
| stet | DRSC08246 | 92.5 | 111 | – | – |
| stet | DRSC08283 | 65 | 134 | – | – |
| EMC1 | DRSC15455 | 79.8 | 119 | – | – |
| CG18262 | DRSC18149 | 205 | 84.5 | – | – |
| CG9674 | DRSC11088 | 120 | 71.6 | – | – |
| CG9674 | DRSC11089 | 80.9 | 140 | – | – |
| CG1703 | DRSC19764 | 66.2 (active) | 165 | – | – |
| CG8677 | DRSC03107 | 124 | 93.6 | – | – |
| Oatp58Dc | DRSC04363 | 101 | 90.4 | – | – |
| PPP1R15 | DRSC04422 | 112 | 80.7 | – | – |
| CG1635 | DRSC15131 | 77.9 | 102 | – | – |
| dpr13 | DRSC06160 | 94.6 | 100 | – | – |
| dpr13 | DRSC06464 | 98.2 | 105 | – | – |
| mad2 | DRSC10274 | 119 | 96.2 | – | – |
| CG1637 | DRSC19748 | 103 | 83 | – | – |
| CG1637 | DRSC19749 | 70.5 (active) | 118 | – | – |
| Hers + amn | DRSC20306 | 59.4 (active) | 124 | – | – |
| Sr-CIII | DRSC22262 | 103 | 163 | – | – |
| CG34384 | DRSC12642 | 8624 | 195 | – | – |
| CG34384 | DRSC14855 | 125 | 152 | – | – |
| CG34384 | DRSC15444 | 150 | 172 | – | – |
| CG34384 | DRSC16575 | 99.8 | 167 | – | – |
| MED22 | DRSC18175 | 119 | 135 | – | – |
| Rrp45 | DRSC20198 | 98.1 | 86.2 | – | – |
| CG14605 | DRSC12549 | 126 | 171 | – | – |
| Rme-8 | DRSC07054 | 118 | 107 | – | – |
| CG3740 | DRSC18508 | 99.2 | 178 | – | – |
| CG18528 | DRSC15340 | 182 | 169 | – | – |
| CR31824 | DRSC01517 | 161 | 113 | – | – |
| kis | DRSC00521 | 201 | 114 | – | – |
| kis | DRSC00625 | 170 | 140 | – | – |
| kis | DRSC00823 | 83 | 165 | – | – |
